# Test results published in the supplement of paper PMC4604168 (melanoma cell lines).
# The other results are listed elsewhere or left out. Single values are uncertain, as repeats are few or missing.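 Imaging used 1,536-well plates; nuclei positive for cleaved PARP by antibody were divided by total DNA-stained nuclei to yield the apoptosis fraction. Doses for screening kept most cells viable, and cell lines differ markedly in resting and induced cleaved-PARP levels.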
# Experiments:
# Assay in all cases: cleaved PARP positive nuclei fraction relative to DMSO control; melanoma cells; higher = more apoptosis
# Conditions in all cases: library dose: low library concentration; 72 h
# CBRC034 = tested on: CBRC034 (line from a melanoma biopsy)
# COLO792 = tested on: COLO792
# COLO800 = tested on: COLO800
# COLO829 = tested on: COLO829
# G361 = tested on: G361
# IPC-298 = tested on: IPC-298
# IST-MEL1 = tested on: IST-MEL1
# LB2518-MEL = tested on: LB2518-MEL
# LOXIMVI = tested on: LOXIMVI
# MEL-HO = tested on: MEL-HO
Structure (SMILES),cleaved PARP positive nuclei fraction (CBRC034),cleaved PARP positive nuclei fraction (COLO792),cleaved PARP positive nuclei fraction (COLO800),cleaved PARP positive nuclei fraction (COLO829),cleaved PARP positive nuclei fraction (G361),cleaved PARP positive nuclei fraction (IPC-298),cleaved PARP positive nuclei fraction (IST-MEL1),cleaved PARP positive nuclei fraction (LB2518-MEL),cleaved PARP positive nuclei fraction (LOXIMVI),cleaved PARP positive nuclei fraction (MEL-HO)
"CCN(CC)CCNC(=O)c1c(C)[nH]c(/C=C2\C(=O)Nc3ccc(F)cc32)c1C [sunitinib] + C=CCNC1=C2C[C@@H](C)C[C@H](OC)[C@H](O)[C@@H](C)/C=C(\C)[C@H](OC(N)=O)[C@@H](OC)/C=C\C=C(/C)C(=O)NC(=CC1=O)C2=O [Tanespimycin] (first compound 0.4 µM, partner dose 0.002 µM)",61%,80.5%,147%,73.5%,103%,88.8%,119%,94.4%,119%,508%
"COc1ccc(C2=N[C@@H](c3ccc(Cl)cc3)[C@@H](c3ccc(Cl)cc3)N2C(=O)N2CCNC(=O)C2)c(OC(C)C)c1 [Nutlin-3] + C=C(c1ccc(C(=O)O)cc1)c1cc2c(cc1C)C(C)(C)CCC2(C)C [Bexarotene] (first compound 0.1 µM, partner dose 2 µM)",76.1%,48.3%,63.4%,57.5%,144%,176%,75.7%,180%,146%,71.3%
"CC1(C)CCC(c2ccc(Cl)cc2)=C(CN2CCN(c3ccc(C(=O)NS(=O)(=O)c4ccc(N[C@H](CCN5CCOCC5)CSc5ccccc5)c(S(=O)(=O)C(F)(F)F)c4)cc3)CC2)C1 + CC(C)C[C@H](NC(=O)[C@H](Cc1ccccc1)NC(=O)c1cnccn1)B(O)O [Bortezomib] (first compound 0.4 µM, partner dose 0.001 µM)",388%,467%,69.8%,106%,2270%,161%,533%,719%,144%,89.6%
"CC1(C)CCC(c2ccc(Cl)cc2)=C(CN2CCN(c3ccc(C(=O)NS(=O)(=O)c4ccc(N[C@H](CCN5CCOCC5)CSc5ccccc5)c(S(=O)(=O)C(F)(F)F)c4)cc3)CC2)C1 + CS(=O)(=O)c1ccc(C(=O)Nc2ccc(Cl)c(-c3ccccn3)c2)c(Cl)c1 [vismodegib] (first compound 0.4 µM, partner dose 1 µM)",89%,215%,280%,111%,128%,84.7%,252%,107%,231%,71.1%
"Cn1sc(=O)n(Cc2ccccc2)c1=O + C[C@]1(c2nc3c(C(N)=O)cccc3[nH]2)CCCN1 [Veliparib] (first compound 0.4 µM, partner dose 1.4 µM)",26.4%,97.5%,136%,95.5%,117%,28.5%,69.1%,89.8%,65.3%,63.3%
"CCN(CC)CCNC(=O)c1c(C)[nH]c(/C=C2\C(=O)Nc3ccc(F)cc32)c1C [sunitinib] + COCC[n+]1c2c(n(Cc3cnccn3)c1C)C(=O)c1ccccc1C2=O [YM155] (first compound 0.4 µM, partner dose 0.0004 µM)",112%,41.2%,71.8%,85.4%,95.3%,83.6%,133%,108%,154%,150%
"Cn1sc(=O)n(Cc2ccccc2)c1=O + CC(=O)O[C@@]12CO[C@@H]1C[C@H](O)[C@@]1(C)C(=O)[C@H](O)C3=C(C)[C@@H](OC(=O)[C@H](O)[C@@H](NC(=O)OC(C)(C)C)c4ccccc4)C[C@@](O)([C@@H](OC(=O)c4ccccc4)[C@H]21)C3(C)C [Docetaxel] (first compound 0.4 µM, partner dose 0.0001 µM)",128%,398%,337%,275%,573%,207%,174%,134%,116%,192%
"C[C@]1(O)C[C@@H](c2nc(-c3ccc4ccc(-c5ccccc5)nc4c3)c3c(N)nccn32)C1 + Nc1ncn([C@H]2C[C@H](O)[C@@H](CO)O2)c(=O)n1 [decitabine] (first compound 0.4 µM, partner dose 0.1 µM)",67.7%,29.7%,152%,96.4%,134%,59.1%,137%,80.1%,45.3%,136%
"CCCCCCCCc1ccc(CCC(N)(CO)CO)cc1 [fingolimod] + Cn1nnc2c(C(N)=O)ncn2c1=O [temozolomide] (first compound 2 µM, partner dose 2 µM)",67.6%,58.4%,162%,76.3%,88.3%,87.8%,42.4%,48.1%,283%,107%
"NC1(c2ccc(-c3nc4ccn5c(=O)[nH]nc5c4cc3-c3ccccc3)cc2)CCC1 + Cc1nc(Nc2ncc(C(=O)Nc3c(C)cccc3Cl)s2)cc(N2CCN(CCO)CC2)n1 [dasatanib] (first compound 0.4 µM, partner dose 0.004 µM)",108%,373%,20.1%,122%,125%,58.1%,76.2%,221%,196%,39.8%
"CN(c1ncccc1CNc1nc(Nc2ccc3c(c2)CC(=O)N3)ncc1C(F)(F)F)S(C)(=O)=O + COc1ccc(Cl)c(Nc2nc3ccccc3nc2NS(=O)(=O)c2cccc(NC(=O)C(C)(C)N)c2)c1 [XL147] (first compound 0.08 µM, partner dose 0.8 µM)",39.3%,148%,77.8%,94.4%,46.2%,171%,131%,149%,48.4%,119%
"CCCCCCCCc1ccc(CCC(N)(CO)CO)cc1 [fingolimod] + C[C@]1(c2nc3c(C(N)=O)cccc3[nH]2)CCCN1 [Veliparib] (first compound 2 µM, partner dose 1.4 µM)",39%,55.8%,107%,139%,84.2%,84.1%,272%,122%,124%,23.3%
"NC(=O)c1ccc(N(C(N)=O)c2c(F)cccc2F)nc1-c1ccc(F)cc1F + O=C(O)c1ccc2c(c1)nc(Nc1cccc(Cl)c1)c1ccncc12 [CX4945] (first compound 0.4 µM, partner dose 0.4 µM)",276%,59%,95.5%,241%,86.3%,52.1%,102%,50.3%,139%,132%
"CN(c1ncccc1CNc1nc(Nc2ccc3c(c2)CC(=O)N3)ncc1C(F)(F)F)S(C)(=O)=O + C#Cc1cccc(Nc2ncnc3cc(OCCOC)c(OCCOC)cc23)c1 [erlotinib] (first compound 0.08 µM, partner dose 0.8 µM)",36.5%,128%,39.3%,121%,116%,93.1%,139%,56.1%,119%,106%
"NC(=O)c1ccc(N(C(N)=O)c2c(F)cccc2F)nc1-c1ccc(F)cc1F + Cc1cc(Nc2cc(N3CCN(C)CC3)nc(/C=C/c3ccccc3)n2)n[nH]1 [ENMD2076] (first compound 0.4 µM, partner dose 0.04 µM)",40.5%,95.6%,91.4%,40.8%,50.8%,85.6%,165%,107%,66.2%,101%
"COc1ccc(C2=N[C@@H](c3ccc(Cl)cc3)[C@@H](c3ccc(Cl)cc3)N2C(=O)N2CCNC(=O)C2)c(OC(C)C)c1 [Nutlin-3] + Clc1ccc(Nc2nnc(Cc3ccncc3)c3ccccc23)cc1 [vatalanib] (first compound 0.1 µM, partner dose 2 µM)",72.6%,103%,53%,32.2%,204%,126%,23.7%,121%,111%,129%
"NC(=O)c1ccc(N(C(N)=O)c2c(F)cccc2F)nc1-c1ccc(F)cc1F + O=C(O)[C@@H]1[O][Sb](=[O])([O][Sb]2(=[O])[O][C@H]([C@H](O)CO)[C@H](O)[C@H](C(=O)O)[O]2)[O][C@H]([C@H](O)CO)[C@@H]1O [stibogluconate] (first compound 0.4 µM, partner dose 2 µM)",115%,131%,102%,55.5%,136%,132%,268%,73.6%,137%,41.2%
"C[C@@H](N)c1ccc(C(=O)Nc2ccnc3[nH]ccc23)cc1 + Cn1c(Nc2ccc(C(F)(F)F)cc2)nc2cc(Oc3ccnc(-c4ncc(C(F)(F)F)[nH]4)c3)ccc21 [CHIR265] (first compound 0.4 µM, partner dose 0.08 µM)",71.2%,259%,112%,136%,174%,97.7%,71.6%,63.6%,130%,75.8%

# 4 successive entries from above, for reference:
Structure (SMILES),cleaved PARP positive nuclei fraction (CBRC034),cleaved PARP positive nuclei fraction (COLO792),cleaved PARP positive nuclei fraction (COLO800),cleaved PARP positive nuclei fraction (COLO829),cleaved PARP positive nuclei fraction (G361),cleaved PARP positive nuclei fraction (IPC-298),cleaved PARP positive nuclei fraction (IST-MEL1),cleaved PARP positive nuclei fraction (LB2518-MEL),cleaved PARP positive nuclei fraction (LOXIMVI),cleaved PARP positive nuclei fraction (MEL-HO)
"NC(=O)c1ccc(N(C(N)=O)c2c(F)cccc2F)nc1-c1ccc(F)cc1F + O=C(O)c1ccc2c(c1)nc(Nc1cccc(Cl)c1)c1ccncc12 [CX4945] (first compound 0.4 µM, partner dose 0.4 µM)",276%,59%,95.5%,241%,86.3%,52.1%,102%,50.3%,139%,132%
"CN(c1ncccc1CNc1nc(Nc2ccc3c(c2)CC(=O)N3)ncc1C(F)(F)F)S(C)(=O)=O + C#Cc1cccc(Nc2ncnc3cc(OCCOC)c(OCCOC)cc23)c1 [erlotinib] (first compound 0.08 µM, partner dose 0.8 µM)",36.5%,128%,39.3%,121%,116%,93.1%,139%,56.1%,119%,106%
"NC(=O)c1ccc(N(C(N)=O)c2c(F)cccc2F)nc1-c1ccc(F)cc1F + Cc1cc(Nc2cc(N3CCN(C)CC3)nc(/C=C/c3ccccc3)n2)n[nH]1 [ENMD2076] (first compound 0.4 µM, partner dose 0.04 µM)",40.5%,95.6%,91.4%,40.8%,50.8%,85.6%,165%,107%,66.2%,101%
"COc1ccc(C2=N[C@@H](c3ccc(Cl)cc3)[C@@H](c3ccc(Cl)cc3)N2C(=O)N2CCNC(=O)C2)c(OC(C)C)c1 [Nutlin-3] + Clc1ccc(Nc2nnc(Cc3ccncc3)c3ccccc23)cc1 [vatalanib] (first compound 0.1 µM, partner dose 2 µM)",72.6%,103%,53%,32.2%,204%,126%,23.7%,121%,111%,129%
